Results published in article PMC9152322.
Results are given in words; binding and its absence hold for the method and conditions named. In cells and extracts the contact can be indirect. These calls come from enrichment with a bait or labelling near it, and not all partners need be listed.

Chains of the proteins cited; added tags and fusions are not shown.
UniProt P46937: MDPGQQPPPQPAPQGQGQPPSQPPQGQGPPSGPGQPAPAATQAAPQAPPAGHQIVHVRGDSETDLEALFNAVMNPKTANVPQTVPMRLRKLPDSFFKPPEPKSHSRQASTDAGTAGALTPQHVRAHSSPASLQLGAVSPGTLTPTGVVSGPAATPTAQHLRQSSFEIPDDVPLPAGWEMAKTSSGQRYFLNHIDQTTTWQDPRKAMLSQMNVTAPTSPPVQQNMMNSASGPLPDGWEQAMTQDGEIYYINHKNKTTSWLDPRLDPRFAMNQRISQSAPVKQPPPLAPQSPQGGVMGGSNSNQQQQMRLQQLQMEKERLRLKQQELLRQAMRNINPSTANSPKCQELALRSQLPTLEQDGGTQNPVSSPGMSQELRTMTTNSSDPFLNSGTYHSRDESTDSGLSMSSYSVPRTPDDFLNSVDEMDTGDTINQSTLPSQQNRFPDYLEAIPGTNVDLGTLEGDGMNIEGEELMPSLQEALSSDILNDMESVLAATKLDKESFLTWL
UniProt P09874: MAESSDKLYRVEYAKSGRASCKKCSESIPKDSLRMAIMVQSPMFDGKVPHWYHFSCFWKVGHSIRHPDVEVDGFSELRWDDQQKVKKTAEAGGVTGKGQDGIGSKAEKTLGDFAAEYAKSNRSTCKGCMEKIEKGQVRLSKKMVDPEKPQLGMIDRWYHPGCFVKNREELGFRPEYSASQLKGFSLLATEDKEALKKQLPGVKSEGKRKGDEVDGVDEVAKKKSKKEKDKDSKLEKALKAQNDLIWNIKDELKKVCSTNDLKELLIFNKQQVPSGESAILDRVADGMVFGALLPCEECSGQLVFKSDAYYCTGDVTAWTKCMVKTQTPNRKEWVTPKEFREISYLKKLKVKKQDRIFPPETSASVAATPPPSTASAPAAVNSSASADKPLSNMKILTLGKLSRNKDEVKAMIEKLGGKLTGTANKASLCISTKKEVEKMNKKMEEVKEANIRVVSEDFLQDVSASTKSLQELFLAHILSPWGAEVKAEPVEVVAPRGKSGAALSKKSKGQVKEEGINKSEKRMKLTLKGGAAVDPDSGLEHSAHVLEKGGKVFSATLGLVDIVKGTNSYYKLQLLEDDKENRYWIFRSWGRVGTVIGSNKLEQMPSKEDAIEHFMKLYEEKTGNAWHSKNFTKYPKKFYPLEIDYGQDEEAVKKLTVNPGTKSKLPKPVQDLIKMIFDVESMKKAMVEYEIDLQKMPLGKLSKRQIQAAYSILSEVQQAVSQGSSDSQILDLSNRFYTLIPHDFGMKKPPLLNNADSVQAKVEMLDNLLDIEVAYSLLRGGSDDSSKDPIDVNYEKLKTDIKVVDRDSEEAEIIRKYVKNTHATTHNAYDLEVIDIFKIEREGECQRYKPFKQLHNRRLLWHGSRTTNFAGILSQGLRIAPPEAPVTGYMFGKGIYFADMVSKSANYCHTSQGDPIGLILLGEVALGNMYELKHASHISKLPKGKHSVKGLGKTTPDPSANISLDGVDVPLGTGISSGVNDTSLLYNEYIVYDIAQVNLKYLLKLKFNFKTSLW

Target: Yes-associated protein 1 (YAP1) (human (endogenous in MV4-11)) (UniProt P46937)
Assay: affinity purification with mass spectrometry; anti-YAP1 or IgG antibody with protein A/G PLUS agarose on cell lysates (25 mM Tris-HCl pH 7.4, 150 mM NaCl, 1% NP-40, 1 mM EDTA), 16 h 4°C, five PBS washes, SDS-PAGE, Q Exactive LC/MS; control (NC) and YAP1-overexpressed (YO) MV4-11-SorR cells; Score Sequest HT ≥ 1.5, proteins of the IgG group removed

Substance	binding
poly (ADP-ribose) polymerase 1 (PARP1) (from UniProt P09874 1-1014)	binds
valosin-containing protein (VCP) (from UniProt P55072 1-806)	binds
